These results are taken from the supplement of paper PMC12819154, “High-throughput peptide-centric local stability assay extends protein–ligand identification to membrane proteins, tissues and bacteria” (Nature Structural & Molecular Biology, 2025).

The chains behind the UniProt entries cited, without tags or fusion partners. Where a name states a change or a piece, a line headed by the entry shows the natural chain unless it says otherwise.
UniProt P75938: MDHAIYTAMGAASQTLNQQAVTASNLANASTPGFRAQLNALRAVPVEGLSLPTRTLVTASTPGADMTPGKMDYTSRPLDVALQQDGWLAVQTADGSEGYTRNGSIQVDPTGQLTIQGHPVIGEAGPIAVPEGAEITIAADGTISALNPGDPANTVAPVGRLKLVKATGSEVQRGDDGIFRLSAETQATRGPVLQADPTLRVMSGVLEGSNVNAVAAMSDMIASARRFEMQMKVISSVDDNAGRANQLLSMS
UniProt P77616: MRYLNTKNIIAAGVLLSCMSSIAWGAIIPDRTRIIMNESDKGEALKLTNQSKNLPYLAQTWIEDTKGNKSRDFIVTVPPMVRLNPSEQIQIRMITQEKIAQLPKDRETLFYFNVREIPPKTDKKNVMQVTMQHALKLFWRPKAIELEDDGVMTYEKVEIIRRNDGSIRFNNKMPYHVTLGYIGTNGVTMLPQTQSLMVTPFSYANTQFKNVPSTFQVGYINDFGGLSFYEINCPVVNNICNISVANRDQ
UniProt P76540: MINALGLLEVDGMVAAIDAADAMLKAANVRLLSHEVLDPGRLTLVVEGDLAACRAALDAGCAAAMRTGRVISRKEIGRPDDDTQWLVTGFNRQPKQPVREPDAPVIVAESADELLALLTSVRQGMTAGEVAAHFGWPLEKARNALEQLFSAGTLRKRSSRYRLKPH
UniProt P76190: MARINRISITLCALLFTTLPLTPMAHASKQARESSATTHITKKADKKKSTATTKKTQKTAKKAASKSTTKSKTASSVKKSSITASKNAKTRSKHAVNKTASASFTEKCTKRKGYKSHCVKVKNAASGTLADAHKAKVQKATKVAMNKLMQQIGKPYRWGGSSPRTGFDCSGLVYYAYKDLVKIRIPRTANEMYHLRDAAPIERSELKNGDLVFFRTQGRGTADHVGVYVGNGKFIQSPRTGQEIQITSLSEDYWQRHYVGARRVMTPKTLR
UniProt P76268: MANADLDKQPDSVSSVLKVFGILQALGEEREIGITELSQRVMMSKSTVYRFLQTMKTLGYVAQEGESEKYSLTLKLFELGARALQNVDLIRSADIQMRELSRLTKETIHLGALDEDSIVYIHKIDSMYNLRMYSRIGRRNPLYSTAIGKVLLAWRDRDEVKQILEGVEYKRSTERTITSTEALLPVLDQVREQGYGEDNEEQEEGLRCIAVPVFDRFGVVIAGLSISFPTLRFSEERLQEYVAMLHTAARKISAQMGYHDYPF
UniProt P77668: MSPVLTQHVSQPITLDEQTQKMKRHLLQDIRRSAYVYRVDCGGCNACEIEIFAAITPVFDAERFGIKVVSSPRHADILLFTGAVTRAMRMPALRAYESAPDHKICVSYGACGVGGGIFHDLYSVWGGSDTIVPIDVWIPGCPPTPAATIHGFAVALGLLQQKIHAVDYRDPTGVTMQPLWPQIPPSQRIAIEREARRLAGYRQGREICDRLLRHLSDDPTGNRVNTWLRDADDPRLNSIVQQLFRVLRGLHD
UniProt P77622: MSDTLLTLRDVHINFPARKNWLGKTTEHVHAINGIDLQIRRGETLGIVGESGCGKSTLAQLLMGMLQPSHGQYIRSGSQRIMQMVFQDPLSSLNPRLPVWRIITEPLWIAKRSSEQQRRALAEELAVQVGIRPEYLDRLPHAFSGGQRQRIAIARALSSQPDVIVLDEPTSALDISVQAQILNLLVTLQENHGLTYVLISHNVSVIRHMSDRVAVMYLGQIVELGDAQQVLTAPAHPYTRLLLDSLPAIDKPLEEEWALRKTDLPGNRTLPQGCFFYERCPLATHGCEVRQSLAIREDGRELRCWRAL
UniProt P77445: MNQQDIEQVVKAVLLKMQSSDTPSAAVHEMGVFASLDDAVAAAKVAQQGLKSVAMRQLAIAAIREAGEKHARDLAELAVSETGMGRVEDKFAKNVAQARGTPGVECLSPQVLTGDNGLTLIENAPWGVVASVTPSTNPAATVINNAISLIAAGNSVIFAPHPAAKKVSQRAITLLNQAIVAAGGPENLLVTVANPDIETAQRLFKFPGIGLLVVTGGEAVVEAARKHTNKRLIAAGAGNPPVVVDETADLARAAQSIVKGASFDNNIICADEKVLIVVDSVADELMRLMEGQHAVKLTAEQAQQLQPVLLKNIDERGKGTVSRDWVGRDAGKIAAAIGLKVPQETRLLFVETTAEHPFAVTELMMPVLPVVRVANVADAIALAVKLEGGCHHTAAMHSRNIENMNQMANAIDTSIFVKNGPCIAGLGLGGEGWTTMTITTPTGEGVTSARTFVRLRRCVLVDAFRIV
UniProt P75874: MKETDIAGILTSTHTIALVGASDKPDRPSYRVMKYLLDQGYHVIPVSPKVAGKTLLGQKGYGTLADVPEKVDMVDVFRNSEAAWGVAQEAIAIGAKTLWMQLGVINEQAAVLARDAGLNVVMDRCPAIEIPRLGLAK
UniProt P77656: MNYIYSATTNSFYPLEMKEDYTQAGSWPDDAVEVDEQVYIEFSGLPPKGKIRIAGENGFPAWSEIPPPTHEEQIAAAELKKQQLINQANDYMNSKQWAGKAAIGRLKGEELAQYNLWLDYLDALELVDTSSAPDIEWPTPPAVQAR
UniProt P76010: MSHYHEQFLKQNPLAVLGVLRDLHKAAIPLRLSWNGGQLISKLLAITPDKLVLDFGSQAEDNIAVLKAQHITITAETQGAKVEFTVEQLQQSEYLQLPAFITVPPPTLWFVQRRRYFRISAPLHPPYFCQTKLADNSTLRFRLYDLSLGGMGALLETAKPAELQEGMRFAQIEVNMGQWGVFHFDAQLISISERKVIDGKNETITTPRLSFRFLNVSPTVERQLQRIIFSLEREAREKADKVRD
UniProt P76008: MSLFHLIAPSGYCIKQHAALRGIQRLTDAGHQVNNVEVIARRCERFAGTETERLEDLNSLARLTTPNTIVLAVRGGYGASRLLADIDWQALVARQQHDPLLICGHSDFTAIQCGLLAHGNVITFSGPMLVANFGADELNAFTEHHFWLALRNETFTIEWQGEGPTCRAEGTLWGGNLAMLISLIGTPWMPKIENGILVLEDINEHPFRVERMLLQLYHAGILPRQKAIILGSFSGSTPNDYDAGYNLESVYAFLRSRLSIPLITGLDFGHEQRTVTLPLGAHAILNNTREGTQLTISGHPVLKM
UniProt P76280: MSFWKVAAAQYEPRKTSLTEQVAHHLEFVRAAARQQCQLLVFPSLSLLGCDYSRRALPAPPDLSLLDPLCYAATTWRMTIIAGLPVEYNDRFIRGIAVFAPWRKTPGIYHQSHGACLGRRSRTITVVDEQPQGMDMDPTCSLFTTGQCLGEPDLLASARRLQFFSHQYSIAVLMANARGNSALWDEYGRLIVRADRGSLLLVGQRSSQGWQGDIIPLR
UniProt P77493: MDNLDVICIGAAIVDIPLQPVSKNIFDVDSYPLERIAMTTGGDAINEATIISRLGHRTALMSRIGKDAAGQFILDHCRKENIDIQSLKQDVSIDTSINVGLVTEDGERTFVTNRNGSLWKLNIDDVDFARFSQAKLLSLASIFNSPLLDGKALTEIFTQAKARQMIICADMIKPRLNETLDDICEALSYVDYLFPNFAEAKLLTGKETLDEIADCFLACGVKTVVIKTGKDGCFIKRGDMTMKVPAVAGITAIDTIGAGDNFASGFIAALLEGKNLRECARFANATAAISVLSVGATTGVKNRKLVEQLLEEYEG
UniProt P77300: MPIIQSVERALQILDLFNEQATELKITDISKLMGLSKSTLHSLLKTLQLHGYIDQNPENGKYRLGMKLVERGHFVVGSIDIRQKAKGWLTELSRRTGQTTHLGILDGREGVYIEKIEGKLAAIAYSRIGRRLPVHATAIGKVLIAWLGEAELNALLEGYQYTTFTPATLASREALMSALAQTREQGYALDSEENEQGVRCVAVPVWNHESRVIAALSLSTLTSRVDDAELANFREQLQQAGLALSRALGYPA
UniProt P76418: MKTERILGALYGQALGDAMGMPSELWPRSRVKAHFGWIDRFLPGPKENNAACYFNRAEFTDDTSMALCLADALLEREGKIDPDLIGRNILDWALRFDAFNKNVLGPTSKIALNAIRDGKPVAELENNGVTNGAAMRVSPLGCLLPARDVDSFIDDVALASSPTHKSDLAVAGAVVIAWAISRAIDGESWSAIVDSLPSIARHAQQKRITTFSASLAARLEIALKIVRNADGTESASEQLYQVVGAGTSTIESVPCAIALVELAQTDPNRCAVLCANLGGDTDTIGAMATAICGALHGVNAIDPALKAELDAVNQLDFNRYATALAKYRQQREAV
UniProt P76256, whole entry: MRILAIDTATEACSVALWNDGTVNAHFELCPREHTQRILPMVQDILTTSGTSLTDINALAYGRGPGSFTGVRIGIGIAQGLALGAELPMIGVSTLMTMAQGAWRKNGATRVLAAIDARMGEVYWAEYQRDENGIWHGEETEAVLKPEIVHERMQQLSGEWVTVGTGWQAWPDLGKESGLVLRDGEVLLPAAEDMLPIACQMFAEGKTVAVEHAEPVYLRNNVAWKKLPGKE
UniProt P77546: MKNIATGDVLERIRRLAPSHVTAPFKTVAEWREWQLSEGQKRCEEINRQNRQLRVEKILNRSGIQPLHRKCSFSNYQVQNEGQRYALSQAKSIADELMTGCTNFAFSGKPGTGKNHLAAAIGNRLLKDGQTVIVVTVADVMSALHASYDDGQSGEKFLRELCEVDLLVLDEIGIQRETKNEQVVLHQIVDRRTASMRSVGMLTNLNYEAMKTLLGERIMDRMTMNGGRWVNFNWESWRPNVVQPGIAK
UniProt P77475: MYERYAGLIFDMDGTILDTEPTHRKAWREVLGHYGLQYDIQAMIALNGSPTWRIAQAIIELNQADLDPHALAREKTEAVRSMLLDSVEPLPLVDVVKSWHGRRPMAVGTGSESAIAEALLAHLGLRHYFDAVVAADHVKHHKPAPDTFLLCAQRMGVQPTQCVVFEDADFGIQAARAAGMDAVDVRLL
UniProt P77552: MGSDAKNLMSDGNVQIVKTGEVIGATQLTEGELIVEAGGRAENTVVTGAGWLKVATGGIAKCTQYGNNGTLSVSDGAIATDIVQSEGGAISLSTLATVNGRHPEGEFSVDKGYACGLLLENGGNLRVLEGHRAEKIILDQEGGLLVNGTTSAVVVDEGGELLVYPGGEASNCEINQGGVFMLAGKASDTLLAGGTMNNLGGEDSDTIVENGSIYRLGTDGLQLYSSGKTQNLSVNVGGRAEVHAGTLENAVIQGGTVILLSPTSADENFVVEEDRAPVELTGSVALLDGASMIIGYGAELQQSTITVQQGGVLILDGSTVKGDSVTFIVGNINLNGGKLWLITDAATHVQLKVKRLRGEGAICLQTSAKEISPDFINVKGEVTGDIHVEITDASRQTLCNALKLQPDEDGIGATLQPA
UniProt P75958: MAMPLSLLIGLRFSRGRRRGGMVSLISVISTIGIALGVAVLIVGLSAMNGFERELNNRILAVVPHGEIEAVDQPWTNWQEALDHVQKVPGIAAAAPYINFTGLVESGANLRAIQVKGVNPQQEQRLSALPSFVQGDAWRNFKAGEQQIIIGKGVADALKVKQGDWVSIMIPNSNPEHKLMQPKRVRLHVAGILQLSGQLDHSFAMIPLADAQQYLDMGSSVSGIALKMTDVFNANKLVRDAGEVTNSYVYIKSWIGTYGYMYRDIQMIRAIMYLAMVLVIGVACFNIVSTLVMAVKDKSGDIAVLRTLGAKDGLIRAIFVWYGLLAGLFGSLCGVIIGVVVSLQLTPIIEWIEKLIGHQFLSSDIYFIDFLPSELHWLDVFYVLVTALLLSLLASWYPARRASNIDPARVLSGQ
UniProt P75992: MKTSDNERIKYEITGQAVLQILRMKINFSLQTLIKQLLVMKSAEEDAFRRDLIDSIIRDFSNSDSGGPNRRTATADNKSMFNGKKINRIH
UniProt P76417: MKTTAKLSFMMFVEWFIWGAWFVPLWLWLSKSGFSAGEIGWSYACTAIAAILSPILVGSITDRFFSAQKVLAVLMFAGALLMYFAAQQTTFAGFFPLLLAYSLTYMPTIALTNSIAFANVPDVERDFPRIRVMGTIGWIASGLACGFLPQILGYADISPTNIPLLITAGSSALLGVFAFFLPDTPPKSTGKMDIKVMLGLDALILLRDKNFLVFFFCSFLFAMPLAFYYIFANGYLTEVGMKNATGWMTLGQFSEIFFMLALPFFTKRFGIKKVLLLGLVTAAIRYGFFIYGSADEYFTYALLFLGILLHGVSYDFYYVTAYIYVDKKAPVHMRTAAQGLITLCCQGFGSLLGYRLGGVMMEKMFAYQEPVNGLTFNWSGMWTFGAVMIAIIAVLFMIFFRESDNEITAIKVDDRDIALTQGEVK
UniProt P75937: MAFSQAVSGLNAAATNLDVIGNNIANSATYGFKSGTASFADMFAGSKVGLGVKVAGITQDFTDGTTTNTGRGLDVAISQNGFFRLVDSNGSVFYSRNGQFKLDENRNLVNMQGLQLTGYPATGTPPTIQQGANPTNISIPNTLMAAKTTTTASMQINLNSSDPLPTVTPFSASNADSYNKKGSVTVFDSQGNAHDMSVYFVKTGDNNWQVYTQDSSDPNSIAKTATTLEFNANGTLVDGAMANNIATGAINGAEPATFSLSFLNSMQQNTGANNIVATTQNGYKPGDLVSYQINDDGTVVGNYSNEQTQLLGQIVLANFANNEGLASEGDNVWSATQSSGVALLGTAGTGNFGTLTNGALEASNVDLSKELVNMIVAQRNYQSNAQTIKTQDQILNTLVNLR

The other results are listed elsewhere or left out. Most values lie at the level of the controls, where differences are scatter.

Compound in this assay: CC1(C)S[C@@H]2[C@H](NC(=O)[C@H](N)c3ccccc3)C(=O)N2[C@H]1C(=O)O [ampicillin]
The assay is described as follows: log2 fold change of tryptic peptide abundance, ligand vs vehicle (limited proteolysis) (log2 ratio); higher = more trypsin-susceptible (destabilized). To be noted: ligand concentration: 10 uM; sample: E. coli crude lysate.
For “UniProt P75938 (peptide sequence: AVPVEGLSLPTR, peptide start residue: 43)”, the log2 fold change was -0.149.

With “UniProt P77616 (peptide sequence: IIMNESDKGEALK, peptide start residue: 34)”, the log2 fold change was -0.245.

As for “UniProt P76540 (peptide sequence: NALEQLFSAGTLRK, peptide start residue: 143)”, the log2 fold change was -0.593.

Regarding “UniProt P76190 (peptide sequence: ESSATTHITK, peptide start residue: 33)”, the log2 fold change is -0.0729.

On to “UniProt P77279 (peptide sequence: NIAELSGGEK, peptide start residue: 134)”, for which the log2 fold change came out at 0.0694.

With “UniProt P76268 (peptide sequence: QILEGVEYK, peptide start residue: 162)”, the log2 fold change worked out at 0.135.

For the target “UniProt P77668 (peptide sequence: IAIEREAR, peptide start residue: 189)”, the log2 fold change came out at 0.0681.

For the target “UniProt P77622 (peptide sequence: TTEHVHAINGIDLQIR, peptide start residue: 25)”, the log2 fold change is -0.557.

With “UniProt P77561 (peptide sequence: KIESYQGAAGGWGAVK, peptide start residue: 4)”, the log2 fold change is -0.0721.

In the case of “UniProt P77445 (peptide sequence: IAAAIGLKVPQETR, peptide start residue: 333)”, the log2 fold change is -0.422.

For the target “UniProt P76148 (peptide sequence: WHNIPQGVSLSEEQQR, peptide start residue: 87)”, the log2 fold change is 0.174.

For the target “UniProt P75874 (peptide sequence: CPAIEIPR, peptide start residue: 125)”, the log2 fold change was -0.415.

Take “UniProt P77656 (peptide sequence: KQQLINQANDYMNSK, peptide start residue: 81)”: the log2 fold change was -0.154.

“UniProt P76010 (peptide sequence: EAREKADK, peptide start residue: 234)”: the log2 fold change was 0.26.

As to “UniProt P77541 (peptide sequence: SVIDTMQTR, peptide start residue: 262)”, the log2 fold change was -0.176.

In the case of “UniProt P76161 (peptide sequence: RGESVIKEEWVK, peptide start residue: 134)”, the log2 fold change came out at 0.489.

Consider “UniProt P77536 (peptide sequence: TPLKFGAISDWMEAR, peptide start residue: 436)”, for which the log2 fold change was -0.579.

As for “UniProt P76008 (peptide sequence: LTDAGHQVNNVEVIAR, peptide start residue: 26)”, the log2 fold change was -0.314.

With “UniProt P76280 (peptide sequence: TSLTEQVAHHLEFVR, peptide start residue: 16)”, the log2 fold change was 0.264.

“UniProt P77493 (peptide sequence: ALTEIFTQAK, peptide start residue: 152)”: the log2 fold change is -0.256.

For the target “UniProt P77300 (peptide sequence: LAAIAYSR, peptide start residue: 120)”, the log2 fold change is -0.219.

Take “UniProt P76418 (peptide sequence: ENNAACYFNR, peptide start residue: 47)”: the log2 fold change was -0.288.

As for “UniProt P76234 (peptide sequence: KTEVAALR, peptide start residue: 32)”, the log2 fold change was -0.242.

Regarding “UniProt P76256 (peptide sequence: DENGIWHGEETEAVLKPEIVHER, peptide start residue: 130)”, the log2 fold change is 0.179.

For “UniProt P76046 (peptide sequence: LKNELNALVNR, peptide start residue: 4)”, the log2 fold change is -0.372.

For “UniProt P77546 (peptide sequence: RLAPSHVTAPFK, peptide start residue: 15)”, the log2 fold change is -0.213.

Regarding “UniProt P77475 (peptide sequence: YAGLIFDMDGTILDTEPTHRK, peptide start residue: 5)”, the log2 fold change was found to be 0.535.

“UniProt P77552 (peptide sequence: HPEGEFSVDK, peptide start residue: 102)”: the log2 fold change was determined as 0.297.

“UniProt P77395 (peptide sequence: KTFQEILAALGTGDALASK, peptide start residue: 256)”: the log2 fold change was determined as 0.68.

For “UniProt P75958 (peptide sequence: GVADALK, peptide start residue: 153)”, the log2 fold change worked out at 0.123.

On to “UniProt P75992 (peptide sequence: DLIDSIIR, peptide start residue: 51)”, for which the log2 fold change was -0.0851.

As for “UniProt P76417 (peptide sequence: DIALTQGEVK, peptide start residue: 416)”, the log2 fold change was 0.244.

Regarding “UniProt P76114 (peptide sequence: QLDEINR, peptide start residue: 81)”, the log2 fold change is 0.498.

For the target “UniProt P76176 (peptide sequence: DKLDQLSQK, peptide start residue: 265)”, the log2 fold change came to 0.152.

On to “UniProt P75937 (peptide sequence: ELVNMIVAQR, peptide start residue: 370)”, for which the log2 fold change is -0.0294.

On to “UniProt P77221 (peptide sequence: LMLAQALHMGDECHNR, peptide start residue: 229)”, for which the log2 fold change turned out to be 0.16.
